Laboratory results reported in patent US5277882A, “Process for recovering germanium” (Union Miniere s.a., priority 1991, dated 1994).

Columns and labels:
Settings in all cases: 10 min
[1] = one-step extraction from weak acid sulphate solution, distribution of Ga
[2] = one-step extraction from weak acid sulphate solution, distribution of In
[3] = one-step extraction from weak acid sulphate solution, distribution of Ge
[4] = Example 4, sodium sulphate solution, O/A=1/3, 50° C.

| SMILES | [Ga]A, Ga concentration in the aqueous phase ([1]; Example 1, O/A=1/3, 50° C.) [g/L] | [Ga]O, Ga concentration in the organic phase ([1]; Example 1, O/A=1/3, 50° C.) [g/L] | [In]A, In concentration in the aqueous phase ([2]; Example 1, O/A=1/3, 50° C.) [g/L] | [In]O, In concentration in the organic phase ([2]; Example 1, O/A=1/3, 50° C.) [g/L] | [Ge]A, Ge concentration in the aqueous phase ([3]; Example 1, O/A=1/3, 50° C.) [g/L] | [Ge]O, Ge concentration in the organic phase ([3]; Example 1, O/A=1/3, 50° C.) [g/L] | [Ga]A, Ga concentration in the aqueous phase ([1]; Example 2, O/A=1/3, 50° C.) [g/L] | [Ga]O, Ga concentration in the organic phase ([1]; Example 2, O/A=1/3, 50° C.) [g/L] | [Ga]A, Ga concentration in the aqueous phase [1, 4] [g/L] | [Ga]O, Ga concentration in the organic phase [1, 4] [g/L] | [In]A, In concentration in the aqueous phase ([2]; Example 2, O/A=1/3, 50° C.) [g/L] | [In]O, In concentration in the organic phase ([2]; Example 2, O/A=1/3, 50° C.) [g/L] | [In]A, In concentration in the aqueous phase [2, 4] [g/L] | [In]O, In concentration in the organic phase [2, 4] [g/L] | [Ge]A, Ge concentration in the aqueous phase ([3]; Example 2, O/A=1/3, 50° C.) [g/L] | [Ge]O, Ge concentration in the organic phase ([3]; Example 2, O/A=1/3, 50° C.) [g/L] | [Ge]A, Ge concentration in the aqueous phase [3, 4] [g/L] | [Ge]O, Ge concentration in the organic phase [3, 4] [g/L] |
| --- | --- | --- | --- | --- | --- | --- | --- | --- | --- | --- | --- | --- | --- | --- | --- | --- | --- | --- |
| CC(CC(C)(C)C)CP(=O)(O)CC(C)CC(C)(C)C (stereo not drawn) [Cyanex 272, bis (2,4,4-trimethyl)-pentylphosphinic acid] | 0.070 | 0 | 0.240 | 0.160 | 0.028 | 0 | – | – | – | – | – | – | – | – | – | – | – | – |
| CCCCC(CC)COP(=O)(O)OCC(CC)CCCC (stereo not drawn) [D2EHPA, di-(2-ethyl)-hexyl-phosphoric acid, reference compound] | 0.070 | 0 | 0.040 | 0.720 | 0.029 | 0 | – | – | – | – | – | – | – | – | – | – | – | – |
| CCCCC(CC)COP(=O)(O)CC(CC)CCCC (stereo not drawn) [PC-88 A, mono-(2-ethyl)-hexyl-(2-ethyl)-hexyl-phosphonic acid-ester] | 0.060 | 0.030 | 0.064 | 0.648 | 0.026 | 0 | 0.380 | 0 | 0.120 | 0 | 0.070 | 0.390 | 0.140 | 0.789 | 0.032 | 0 | 0.109 | 0 |
